This is one part of the list.

Chains of the proteins cited; added tags and fusions are not shown.
UniProt Q0JBA9, entry or part of it: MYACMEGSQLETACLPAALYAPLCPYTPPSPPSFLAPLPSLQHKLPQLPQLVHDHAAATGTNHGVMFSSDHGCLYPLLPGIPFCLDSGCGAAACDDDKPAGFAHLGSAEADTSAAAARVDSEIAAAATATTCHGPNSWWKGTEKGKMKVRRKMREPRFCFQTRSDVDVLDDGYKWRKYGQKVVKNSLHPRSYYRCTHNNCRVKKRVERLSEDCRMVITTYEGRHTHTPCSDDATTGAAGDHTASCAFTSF

The target of this test is OsWRKY34 (Oryza sativa, UniProt Q0JBA9 1-250). Description: protein-binding microarray (RPBM); PBS, 2% BSA, 51.3 ng/ul salmon testes DNA, 50 uM zinc acetate, 200 nM TF, 25 C, 1 h; high values mean tight binding. Particulars: protein: recombinant; tags: N-terminal polyhistidine and DsRed monomer fusion (pET32a); label: CyDye5-dUTP incorporated in the synthesized complementary strand; 3' TTTTT single-stranded linker to array surface; dsDNA, one strand shown. A digest of the protocol: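 Transcription factors were made in E. coli BL21-CodonPlus as N-terminal fusions to a polyhistidine tag and DsRed, then purified on Ni–NTA. After primer extension with Cy5-dUTP and blocking with 2% BSA, a custom Agilent array was exposed for 1 h at 25 °C to 200 nM protein in PBS, 2% BSA, salmon testes DNA and 50 µM zinc acetate. Washed arrays were scanned on an Axon 4000B, and the binding signal is per-feature fluorescence intensity in arbitrary units.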
As for “TAAGATGTTTTGACTTTGGTCAAAGTCAAACTACTTTGAGCGGAGTCACCTAGTGCAG”, the binding signal is 13200 fluorescence intensity (a.u.).
For “AATTTTTTTCGTTTTACATAATATACTATGTATTATCTATCGGAGTCACCTAGTGCAG”, the binding signal is 8620 fluorescence intensity (a.u.).
Take “CTTAGCCGCGTCGCGCTGCTCTGCTTGATCATCATCACCTCGGAGTCACCTAGTGCAG”: the binding signal was 10300 fluorescence intensity (a.u.).
On to “CTACACTTCACAGCACTGCACTAAACGCTCTTTGGAGGATCGGAGTCACCTAGTGCAG”, for which the binding signal was 9470 fluorescence intensity (a.u.).
“CTTTATTTCCGGTCTTTACACGATGTGCACACAACCTATACGGAGTCACCTAGTGCAG”: the binding signal is 8260 fluorescence intensity (a.u.).
Turning to “TCAAATTGCACCGGTTTCAATAGTTCAGGGGTCGAGATATCGGAGTCACCTAGTGCAG”, the binding signal was 8850 fluorescence intensity (a.u.).
In the case of “TTGCCCACACTCTTTTCACATCTATGTATCTATATAGCTACGGAGTCACCTAGTGCAG” it was 10600 fluorescence intensity (a.u.); in that of “TGCTACCATCGTCGTGGCTGCGGTGGAGGGAAGGGAGGGGCGGAGTCACCTAGTGCAG”, 13100 fluorescence intensity (a.u.).
Turning to “CCTCTTTATTCCATTAGCTTTTTTCATCTTCTGCTCCATCCGGAGTCACCTAGTGCAG”, the binding signal is 10500 fluorescence intensity (a.u.).
For “CTTTTCGTTTTGCTAATTTTGGATTTTATTTTTATTTTTACGGAGTCACCTAGTGCAG”, the binding signal was 8340 fluorescence intensity (a.u.).
Turning to “TCTTGATGTCTAGCTTCTGTTCGGGTTATGAGGAGGGCTGCGGAGTCACCTAGTGCAG”, the binding signal was 8380 fluorescence intensity (a.u.).
Next, “GGAAGCAGTATCTTTTCAAGGGGTGCAGTATTGCAGTGGACGGAGTCACCTAGTGCAG”: 8040 fluorescence intensity (a.u.); “CATTTTTATGCCTTTTTACACCACCGCTGGCTGAACCAAACGGAGTCACCTAGTGCAG”: 8240 fluorescence intensity (a.u.).
Take “CACGATACACATTTAATTCCATACGATCCTACAGGATTATCGGAGTCACCTAGTGCAG”: the binding signal is 9230 fluorescence intensity (a.u.).
Consider “GTCTTTACATATTTCGTGTTGCATCGTGAAGCCAATCAATCGGAGTCACCTAGTGCAG”, for which the binding signal was 9110 fluorescence intensity (a.u.).
Take “GCTCCGTGGGCTGTTTTCACTTCTCTTGGGCTGCTGAGGCCGGAGTCACCTAGTGCAG”: the binding signal was 8560 fluorescence intensity (a.u.).
In the case of “CACCGCTGCCCGTATCTTCCCCTGCACTACTCACTGACAGCGGAGTCACCTAGTGCAG” it was 8830 fluorescence intensity (a.u.).
“GCACTATTCACGTTCAACGTTTGATCATTCGTCTTATTTACGGAGTCACCTAGTGCAG”: the binding signal is 9490 fluorescence intensity (a.u.).
“CCAGTCTTCGAAGATGCTCGTAGGGGTAGGGTTTGCGTGCCGGAGTCACCTAGTGCAG”: the binding signal was 9140 fluorescence intensity (a.u.).
Take “CGGTAAACTTTTTCTTGCGTTGCTTTGCTTTGCTTTTCTTCGGAGTCACCTAGTGCAG”: the binding signal was 12700 fluorescence intensity (a.u.).
Consider “GTAGGGGTCTCGAGGTGTTCAAGTGTGGATTACTCCATAGCGGAGTCACCTAGTGCAG”, for which the binding signal is 9710 fluorescence intensity (a.u.).
In the case of “TACTTTTAACTCCACTCGGGTGCTTAGCTCGTCCCTCATCCGGAGTCACCTAGTGCAG”, the binding signal is 9760 fluorescence intensity (a.u.).
Regarding “AATTTTCCTCACATTTATCCTATATTTATCATTTTTTCCTCGGAGTCACCTAGTGCAG”, the binding signal is 11800 fluorescence intensity (a.u.).
For “TGACATGGTTCGTTCCCACATGCGCTCGTTTAGACGTCCGCGGAGTCACCTAGTGCAG”, the binding signal is 9330 fluorescence intensity (a.u.).
“TTGTTTTCTTCGTTGACGCTTCTAGATTTTTTAACGTTCACGGAGTCACCTAGTGCAG”: the binding signal was 8840 fluorescence intensity (a.u.).
Consider “ACACGCTTCACTCTCACGCACGCACACAGCTAGCTACTCGCGGAGTCACCTAGTGCAG”, for which the binding signal was 10200 fluorescence intensity (a.u.).
For “CGTTTCAGTAACCGCCATTTTTTCACCAACCAAGTCACGTCGGAGTCACCTAGTGCAG”, the binding signal is 8610 fluorescence intensity (a.u.).
In the case of “AACAAACTACCGCAAGGCACAAGCCTATTTATGATATAATCGGAGTCACCTAGTGCAG”, the binding signal is 8840 fluorescence intensity (a.u.).
Regarding “GCTGGATATAGGGATCGATCGGAAGTTTTTTTGGGATATGCGGAGTCACCTAGTGCAG”, the binding signal was 9530 fluorescence intensity (a.u.).
Turning to “CAATATAAGGGATTTTCAGTTTTTGCTTGCAACGTTTGACCGGAGTCACCTAGTGCAG”, the binding signal was 8050 fluorescence intensity (a.u.).
On to “GATTCATTTTCCTAAGGATTTTTTCCTATATTGCCCTTTGCGGAGTCACCTAGTGCAG”, for which the binding signal is 9370 fluorescence intensity (a.u.).
In the case of “TCTCCTGTGTCGCAGCCGACGTCGCCGCCTCTTCTCCCGCCGGAGTCACCTAGTGCAG” it was 8230 fluorescence intensity (a.u.); in that of “GTCGAGGTATATATATTCATCTCTATGTCTCGCCGTTGCTCGGAGTCACCTAGTGCAG”, 9870 fluorescence intensity (a.u.).
Consider “CTCAAGCAGACTTTCTCACCTACAGCCAATTTTTTAGAAACGGAGTCACCTAGTGCAG”, for which the binding signal was 8680 fluorescence intensity (a.u.).
Next, “TTCAAATATTGTGCGCCCATTTGACCCATCTATTGCAAAACGGAGTCACCTAGTGCAG”: 9400 fluorescence intensity (a.u.); “GGCAGCCACACACACACCACTCCATTTCTGAGCTCTTCTACGGAGTCACCTAGTGCAG”: 10900 fluorescence intensity (a.u.).
For “AAAGGGGAGTGTTTTAGCATCATTACTTTTTGCCCATGGCCGGAGTCACCTAGTGCAG”, the binding signal is 9860 fluorescence intensity (a.u.).
Regarding “TCTACCTTTACCCTTTAAGCGCATCTTAATTCGATCCATCCGGAGTCACCTAGTGCAG”, the binding signal was 8580 fluorescence intensity (a.u.).
For the sequence “ACACAGTGGTAGGGGTAGAGGGAGGGTAGAAGAGAAGAGGCGGAGTCACCTAGTGCAG”, the binding signal is 8770 fluorescence intensity (a.u.).
In the case of “GTGGATAGAGTGGAGGGCGGGACCTTTTTTCCTTTCGTCTCGGAGTCACCTAGTGCAG”, the binding signal was 10700 fluorescence intensity (a.u.).
For the sequence “GGTGATCTCTTATCTTTTATTGTTACTATCTCTGTTCTATCGGAGTCACCTAGTGCAG”, the binding signal was 11300 fluorescence intensity (a.u.).
On to “GCCACGATTGCGACGAGCGGAGGAGGCGGGGAGAGGCGGGCGGAGTCACCTAGTGCAG”, for which the binding signal was 8940 fluorescence intensity (a.u.).
